PubChem BioAssay AID1259289 – Sanger Institute, 2017

Screen: 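Kinase-wide silencing tested with three anchor drugs to reveal synergistic lethal pairs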 (primary screen)
Cells: human LS513 colorectal cancer cells
Knock-down reagent: siRNA pool against human genes
Conditions: anchor drug BYL719 at 1 µM, cetuximab at 5 µg/ml or trametinib at 10 nM, or DMSO vehicle alone; exposure time not given
Measurement: 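Survival versus non-targeting pool for each arm averaged over replicates, robust z-score in the arm with DMSO only, and synergy scores for BYL719, cetuximab or trametinib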
Direction: robust z-score, siRNA alone (DMSO): higher = more viable cells; strongly negative means essential; viability with DMSO vs control: higher = more viable cells; synergy score with BYL719: higher = stronger combined killing with BYL719; synergy score with cetuximab: higher = stronger combined killing with cetuximab; synergy score with trametinib: higher = stronger combined killing with trametinib
Rule for the call: 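a gene counts as active if its DMSO-only robust z-score falls under -3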
Calls: active = essential (knock-down alone); inactive = not essential
In all, the deposit lists 794 reagents; below is an unselected part. 16 of all reagents (2%) were called active. 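Active marks cell loss from silencing alone; drug synergy shows only in the synergy scores, not the calls.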 Unmarked entries are inactive. No viability above 1 is reported: the scale is capped. No sequences are given here. Not stated in the record: the amount of reagent, the time to read-out.

target	robust z-score, siRNA alone (DMSO)	viability with DMSO vs control (fraction of control)	synergy score with BYL719	synergy score with cetuximab	synergy score with trametinib
CDK2	0.561	1	-0.134	-0.0968	0.0712
SIK2	-0.543	0.843	-0.00717	0.108	-0.168
NPR2	0.561	1	-0.134	-0.0968	-0.0562
CAMK4	0.561	1	-0.0764	-0.00234	0.0163
CNOT1	-0.274	0.881	-0.00529	0.118	0.0383
WIPF1	-0.537	0.844	0.101	0.119	0.0561
CDC42BPB	0.561	1	-0.134	-0.0968	-0.0159
DCK	-2.25	0.601	0.127	0.00608	0.0213
PRKD2	0.561	1	-0.134	-0.0968	-0.00751
CSNK1D	0.198	0.948	0.117	0.105	-0.0635
PDGFRL	0.561	1	-0.134	-0.0394	0.00497
MAST3	0.561	1	-0.119	-0.0968	0.0545
SYNCRIP	-1.95	0.644	0.0636	0.144	0.0452
CASK	-0.791	0.808	0.105	-0.0311	0.0294
STK40	0.561	1	0.0751	0.0352	-0.0682
EFNA5	0.561	1	-0.134	-0.0968	0.00812
BRD4	0.561	1	0.105	0.011	0.0149
RAF1	-1.82	0.663	-0.0796	0.0296	0.0302
ZAP70	0.561	1	0.0439	0.139	0.0309
JAK1	0.561	1	-0.0574	-0.0968	-0.0364
CAMKK2	-0.0484	0.913	0.0746	0.15	0.0275
CDKL2	-0.0537	0.913	0.067	-0.0147	-0.0903
N4BP2	0.561	1	-0.129	-0.0968	0.0196
CKM	0.561	1	-0.134	-0.0968	-0.0829
BUB1B	-0.941	0.787	-0.0274	-0.00372	-0.00526
ACVR1	-0.071	0.91	0.0639	0.116	0.0339
RPS6KA2	-2.8	0.523	-0.043	-0.0228	-0.0105
STK24	0.561	1	-0.107	-0.0968	-0.0018
GRK6	-0.912	0.791	-0.0412	-0.00355	0.0162
KCNH8	-0.581	0.838	-0.00855	0.218	0.0533
VRK2	0.561	1	0.082	0.141	0.0303
MAP3K21	0.561	1	-0.134	-0.0968	0.0611
SOS2	0.561	1	0.0542	0.176	-0.119
TGFBR1	0.561	1	-0.134	-0.0968	-0.0383
KDR	0.561	1	-0.134	-0.0968	-0.0763
ULK1	0.00495	0.921	0.0742	0.00898	0.0369
FRK	0.561	1	-0.0879	0.0313	0.0264
PTEN	0.561	1	-0.076	-0.0968	-0.037
DLG3	0.117	0.937	0.171	-0.0833	-0.00289
MAP3K9	-1.77	0.67	-0.0162	-0.0293	0.0547
NF1	0.561	1	-0.134	-0.0968	-0.0529
GRK2	0.561	1	0.0998	0.0799	0.0476
MAP3K13	-0.473	0.853	0.133	0.0664	-0.114
TGFBR2	-0.102	0.906	0.0105	0.0227	0.0431
GCK	-1.79	0.666	0.0575	0.102	0.00366
PKIA	-0.527	0.846	0.0544	0.00188	-0.0143
EPHA6	-4.42 (active)	0.293	-0.128	-0.104	0.00054
MAP2K1	0.561	1	-0.0174	0.112	0.0552
FGR	-0.861	0.798	0.153	-0.0317	0.0516
MAGI3	0.561	1	-0.0779	-0.0968	-0.0131

Reprinted from above (3 entries):
target	robust z-score, siRNA alone (DMSO)	viability with DMSO vs control (fraction of control)	synergy score with BYL719	synergy score with cetuximab	synergy score with trametinib
SOS2	0.561	1	0.0542	0.176	-0.119
TGFBR1	0.561	1	-0.134	-0.0968	-0.0383
KDR	0.561	1	-0.134	-0.0968	-0.0763
